# Experimental data taken from PMC7897482.
# The chains behind the UniProt entries cited, without tags or fusion partners.
# UniProt Q9VH07: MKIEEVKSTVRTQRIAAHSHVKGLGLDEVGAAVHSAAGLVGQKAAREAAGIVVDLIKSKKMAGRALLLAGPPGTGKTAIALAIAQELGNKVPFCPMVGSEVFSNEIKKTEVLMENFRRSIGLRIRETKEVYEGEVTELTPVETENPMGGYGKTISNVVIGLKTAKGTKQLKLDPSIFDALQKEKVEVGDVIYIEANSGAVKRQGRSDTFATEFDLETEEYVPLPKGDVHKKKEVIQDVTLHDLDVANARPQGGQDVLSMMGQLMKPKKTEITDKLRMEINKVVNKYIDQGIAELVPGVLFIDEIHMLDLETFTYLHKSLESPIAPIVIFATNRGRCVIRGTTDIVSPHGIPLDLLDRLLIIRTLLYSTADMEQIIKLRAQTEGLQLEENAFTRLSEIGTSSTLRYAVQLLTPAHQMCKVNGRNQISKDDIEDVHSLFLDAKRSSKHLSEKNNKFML
# No constants are given. Whether binding was seen depends on the method and setting. In cells and extracts the contact can be indirect. Some binding calls cover weakened binding; strength is not graded here. Where a sequence is shown, tags or fusion partners need not be part of it.
# How the values were obtained:
# [1] = target: T1, SmD3::HA (transgenic UAS-SmD3::3xHA) (Drosophila melanogaster) (UniProt O44437); experiment: co-IP; SmD3::HA precipitated with anti-HA antibody-coupled magnetic beads from wing imaginal disc lysates; endogenous Prp8 and Ecd detected by western blot; compared: ecd RNAi, prp8 RNAi, Prp8 overexpression, RNase A treatment of the lysate; control: discs expressing RFP only
# T1 sequence: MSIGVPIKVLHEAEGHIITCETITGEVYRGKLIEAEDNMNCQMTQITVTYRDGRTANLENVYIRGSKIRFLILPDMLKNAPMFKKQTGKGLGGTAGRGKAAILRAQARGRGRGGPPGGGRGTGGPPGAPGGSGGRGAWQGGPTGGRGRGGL
# [2] = target: T2, Myc::Ecd^wt (Ecdysoneless, wild type) (Drosophila melanogaster) (UniProt Q9W032); experiment: co-IP; lysates of transfected Drosophila S2 cells; Myc-tagged Ecd proteins served as baits (anti-Myc magnetic beads), overnight at 4°C, five washes in lysis buffer with 150-250 mM NaCl; western blot
# T2 sequence: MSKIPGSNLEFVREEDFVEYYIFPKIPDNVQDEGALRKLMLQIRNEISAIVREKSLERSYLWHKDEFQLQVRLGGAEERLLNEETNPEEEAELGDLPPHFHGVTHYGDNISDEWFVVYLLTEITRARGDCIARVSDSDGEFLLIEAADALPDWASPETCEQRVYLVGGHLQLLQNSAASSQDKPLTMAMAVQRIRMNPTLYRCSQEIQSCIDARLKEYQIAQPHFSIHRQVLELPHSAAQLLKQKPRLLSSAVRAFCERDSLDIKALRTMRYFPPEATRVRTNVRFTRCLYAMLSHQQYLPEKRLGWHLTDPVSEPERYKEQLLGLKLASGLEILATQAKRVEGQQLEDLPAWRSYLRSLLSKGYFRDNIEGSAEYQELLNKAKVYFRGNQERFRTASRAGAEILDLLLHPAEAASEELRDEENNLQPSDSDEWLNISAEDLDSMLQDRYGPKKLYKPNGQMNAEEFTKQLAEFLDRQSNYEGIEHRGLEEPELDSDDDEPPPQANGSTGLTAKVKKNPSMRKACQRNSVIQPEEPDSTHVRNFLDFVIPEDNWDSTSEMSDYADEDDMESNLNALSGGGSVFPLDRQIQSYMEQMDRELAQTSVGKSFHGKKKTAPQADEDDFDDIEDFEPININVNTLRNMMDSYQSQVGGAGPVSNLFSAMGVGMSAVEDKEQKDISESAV
# [3] = target: T3, Myc::Ecd^Δ34 (Drosophila melanogaster) (UniProt Q9W032); experiment: as above
# T3 sequence: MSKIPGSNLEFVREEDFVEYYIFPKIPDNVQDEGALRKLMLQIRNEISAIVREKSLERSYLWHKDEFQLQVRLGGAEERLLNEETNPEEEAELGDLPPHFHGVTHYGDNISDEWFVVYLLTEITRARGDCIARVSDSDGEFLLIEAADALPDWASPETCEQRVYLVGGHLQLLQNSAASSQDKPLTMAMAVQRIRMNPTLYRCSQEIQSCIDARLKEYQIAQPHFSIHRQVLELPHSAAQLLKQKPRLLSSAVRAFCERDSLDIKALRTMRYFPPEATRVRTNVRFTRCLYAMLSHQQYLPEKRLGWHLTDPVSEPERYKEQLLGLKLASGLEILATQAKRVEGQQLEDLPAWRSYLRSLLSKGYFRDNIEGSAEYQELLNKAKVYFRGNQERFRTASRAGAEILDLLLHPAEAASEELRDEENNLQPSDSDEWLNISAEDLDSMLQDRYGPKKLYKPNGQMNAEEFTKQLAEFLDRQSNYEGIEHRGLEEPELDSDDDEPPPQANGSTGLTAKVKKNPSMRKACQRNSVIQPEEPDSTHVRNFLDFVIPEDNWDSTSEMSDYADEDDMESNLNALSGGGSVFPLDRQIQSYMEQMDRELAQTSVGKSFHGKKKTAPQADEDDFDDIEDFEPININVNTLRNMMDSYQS
binding [1],binding [2],binding [3],Substance
binds,–,–,endogenous Prp8 (wing imaginal discs) (from UniProt A1Z8U0 1-2396)
–,binds,binds,tagged Pontin (RUVBL1) (from UniProt Q9VH07 1-456)
